Measured values reported in paper PMC5904360, “Soluble N-Ethylmaleimide-Sensitive Factor Attachment Protein Receptor-Derived Peptides for Regulation of Mast Cell Degranulation” (Frontiers in Immunology, 2018).
Results are given in words; binding and its absence hold for the method and conditions named. Binding seen in cells or lysates may run through a third protein. Some results given as binding are weak or reduced against the parent protein; the word gives no strength.

Chains of the proteins cited; added tags and fusions are not shown.
UniProt Q08850: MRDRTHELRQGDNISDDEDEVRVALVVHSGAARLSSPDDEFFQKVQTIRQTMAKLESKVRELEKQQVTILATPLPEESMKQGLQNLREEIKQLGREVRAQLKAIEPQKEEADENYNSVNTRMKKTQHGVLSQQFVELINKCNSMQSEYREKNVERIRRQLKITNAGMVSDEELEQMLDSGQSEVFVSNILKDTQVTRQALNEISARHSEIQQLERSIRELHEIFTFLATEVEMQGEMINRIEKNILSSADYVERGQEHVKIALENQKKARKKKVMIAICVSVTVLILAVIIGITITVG
UniProt P63045: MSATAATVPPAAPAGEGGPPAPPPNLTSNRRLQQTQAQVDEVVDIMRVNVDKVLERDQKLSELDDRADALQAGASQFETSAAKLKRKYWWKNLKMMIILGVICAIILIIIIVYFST

Experiments:
Test in all cases: co-IP; lysates of activated RBL-2H3 cells (50 mM Tris-HCl, 150 mM NaCl, 1% Triton X-100, 1 mM EDTA, pH 7.5; 4°C); immunoprecipitation with antibodies against Syn4, VAMP2 or VAMP8 and protein G, blot with anti-SNAP-23; cells with or without A23187 pretreatment and peptides or LY294002
[1] = biological target: T1, vesicle-associated membrane protein 8 (VAMP8) (rat (endogenous in RBL-2H3)) (UniProt Q9WUF4)
T1 sequence: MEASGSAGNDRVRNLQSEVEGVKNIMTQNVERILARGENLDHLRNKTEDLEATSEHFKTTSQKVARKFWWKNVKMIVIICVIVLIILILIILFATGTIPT

[2] = biological target: syntaxin 4 (rat (endogenous in RBL-2H3)) (UniProt Q08850)
[3] = biological target: vesicle-associated membrane protein 2 (VAMP2) (rat (endogenous in RBL-2H3)) (UniProt P63045)

- binding [1]: binds
- binding [2]: binds
- binding [3]: binds
B1: synaptosome-associated protein of 23 kDa (SNAP-23) (protein, UniProt O70377 1-210)
chain: MDDLSPEEIQLRAHQVTDESLESTRRILGLAIESQDAGIKTITMLDEQGEQLNRIEEGMDQINKDMREAEKTLTELNKCCGLCVCPCNRTKNFESGKNYKATWGDGGDSSPSNVVSKQPSRITNGQPQQTTGAASGGYIKRITNDAREDEMEENLTQVGSILGNLKNMALDMGNEIDAQNQQIQKITEKADTNKNRIDIANTRAKKLIDS
